Experimental findings from patent publication US20180320217A1, “METHODS FOR SAMPLING AND MEASURING ORAL LAVAGE PROTEINS” (The Procter & Gamble Company, priority 2017, published 2018) are described below.

The subject of the data set is proteins in oral lavage. Kind of data set: Abundance of proteins in human oral lavage (SomaLogic), TABLE 1. It counts as in vivo. The settings on record: for Means (Original Scale) High bleeder BL / Means (Original Scale) High bleeder W4 / Means (Original Scale) Low bleeder BL: abundance in oral lavage; for Means (Original Scale) High bleeder BL: high bleeders (gingivitis); for Means (Original Scale) High bleeder BL / Means (Original Scale) Low bleeder BL: baseline; for Means (Original Scale) High bleeder W4 / Fold Change High bleeder W4 vs High bleeder BL: high bleeders; for Means (Original Scale) High bleeder W4: week 4 of investigative products; for Means (Original Scale) Low bleeder BL: low bleeders (healthy); for Fold Change High bleeder BL vs Low bleeder BL / Fold Change High bleeder W4 vs High bleeder BL: oral lavage; for Fold Change High bleeder BL vs Low bleeder BL: high bleeders vs low bleeders at baseline; for Fold Change High bleeder W4 vs High bleeder BL: week 4 of investigative products vs baseline.

For the substance 14-3-3 protein theta, the “Means (Original Scale) High bleeder BL” value is recorded as 5344, the “Means (Original Scale) High bleeder W4” value came to 2603, the “Means (Original Scale) Low bleeder BL” value came out at 838 and the “Fold Change High bleeder BL vs Low bleeder BL” value (shortened to “Fold Change High bleeder BL”) is reported as 5.73. Also, the “Fold Change High bleeder W4 vs High bleeder BL” value (shortened to “Fold Change High bleeder W4”) is 0.57.
In the same order, the values of “26S proteasome non-ATPase regulatory subunit 7” are 368, 252, 80, 3.81 and 0.74.
In the same order, the values of “ATP synthase subunit beta, mitochondrial” are 526, 265, 162, 2.70 and 0.58.
The corresponding values for Alpha-1-antitrypsin are 3598, 1784, 1399, 2.26 and 0.62.
As for Alpha-enolase, the “Means (Original Scale) High bleeder BL” value was found to be 217066, the “Means (Original Scale) High bleeder W4” value amounted to 170325, the “Means (Original Scale) Low bleeder BL” value was 110398 and the “Fold Change High bleeder BL” value is listed as 2.28. The “Fold Change High bleeder W4” value was found to be 0.76.
In the same order, the values of Amyloid beta A4 protein are 128850, 81350, 51294, 2.42 and 0.68.
In the same order, the values of Antithrombin-III are 7388, 2485, 1424, 5.80 and 0.95.
In the same order, the values of C-X-C motif chemokine 6 are 132, 45, 26, 2.45 and 0.63.
As for C-reactive protein, the “Means (Original Scale) High bleeder BL” value is 2929, the “Means (Original Scale) High bleeder W4” value turned out to be 1665, the “Means (Original Scale) Low bleeder BL” value worked out at 285 and the “Fold Change High bleeder BL” value was found to be 12.47. Moreover, the “Fold Change High bleeder W4” value is 0.72.
In the same order, the values of CD109 antigen are 512, 302, 233, 2.24 and 0.61.
In the case of Chitotriosidase-1, the “Means (Original Scale) High bleeder BL” value worked out at 58999, the “Means (Original Scale) High bleeder W4” value stood at 41470, the “Means (Original Scale) Low bleeder BL” value is 14176 and the “Fold Change High bleeder BL” value is listed as 7.00. In addition, the “Fold Change High bleeder W4” value was 0.70.
The corresponding values for Clusterin are 1890, 1193, 340, 4.12 and 0.65.
In the same order, the values of Cofilin-1 are 1143, 622, 254, 3.94 and 0.62.
In the same order, the values of Collagen alpha-1(XXIII) chain are 289, 174, 106, 2.61 and 0.64.
Turning to Complement component C9, the “Means (Original Scale) High bleeder BL” value is reported as 76942, the “Means (Original Scale) High bleeder W4” value was 31536, the “Means (Original Scale) Low bleeder BL” value was 7900 and the “Fold Change High bleeder BL” value was found to be 18.85. Besides, the “Fold Change High bleeder W4” value stood at 0.73.
In the same order, the values of Drebrin-like protein are 2088, 1305, 809, 2.37 and 0.67.
The corresponding values for “Dual specificity mitogen-activated protein kinase kinase 1” are 96, 69, 34, 2.47 and 0.74.
In the same order, the values of Ephrin type-A receptor 2 are 47551, 26305, 16730, 2.80 and 0.59.
For Epidermal growth factor, the “Means (Original Scale) High bleeder BL” value turned out to be 40558, the “Means (Original Scale) High bleeder W4” value amounted to 18414, the “Means (Original Scale) Low bleeder BL” value turned out to be 4786 and the “Fold Change High bleeder BL” value came to 18.15. The “Fold Change High bleeder W4” value is listed as 0.55.
The corresponding values for Epiregulin are 923, 545, 365, 2.08 and 0.68.
The corresponding values for Fatty acid-binding protein, heart are 6011, 3062, 3121, 2.38 and 0.53.
In the same order, the values of Ficolin-1 are 5106, 1286, 329, 6.22 and 0.57.
In the case of Galectin-7, the “Means (Original Scale) High bleeder BL” value is listed as 697, the “Means (Original Scale) High bleeder W4” value is given as 435, the “Means (Original Scale) Low bleeder BL” value is 219 and the “Fold Change High bleeder BL” value is listed as 2.83. The “Fold Change High bleeder W4” value amounted to 0.68.
The corresponding values for Galectin-10 are 349, 146, 75, 3.52 and 0.49.
The corresponding values for “Glyceraldehyde-3-phosphate dehydrogenase” are 106769, 85859, 12144, 14.20 and 0.44.
In the same order, the values of “Granulocyte-macrophage colony-stimulating factor” are 3974, 2161, 1747, 2.41 and 0.61.
In the case of Growth-regulated alpha protein, the “Means (Original Scale) High bleeder BL” value was found to be 3896, the “Means (Original Scale) High bleeder W4” value was 649, the “Means (Original Scale) Low bleeder BL” value came out at 270 and the “Fold Change High bleeder BL” value was 5.15. Further, the “Fold Change High bleeder W4” value is reported as 0.48.
In the same order, the values of Growth/differentiation factor 5 are 511, 423, 260, 1.89 and 0.80.
The corresponding values for Heat shock 70 kDa protein 1A are 87728, 63420, 16620, 6.33 and 0.67.
The corresponding values for Heat shock protein HSP 90-beta are 114383, 53401, 13991, 11.49 and 0.61.
Heat shock protein beta-1: the “Means (Original Scale) High bleeder BL” value worked out at 216, the “Means (Original Scale) High bleeder W4” value came to 124, the “Means (Original Scale) Low bleeder BL” value turned out to be 84 and the “Fold Change High bleeder BL” value turned out to be 2.28. Also, the “Fold Change High bleeder W4” value was 0.61.
The corresponding values for Hemopexin are 2677, 1383, 662, 6.00 and 0.64.
